Source: PubChem BioAssay AID2685 (National Center for Advancing Translational Sciences (NCATS), 2010)
Hit rate of the full screen: of about 320,000 compounds, about 2,100 (0.66%) were called active. This list was built around the results that the source calls inconclusive (neither active nor inactive); the mix of calls is not that of the screen. Calls come from the whole dose curve; as a rule, active = well fitted inhibition curve with a large enough effect in the signal ratio, with a control signal flat (not every such curve was filed as active); inconclusive = small, poorly fitted or top-dose-only effect, or effect the other way, or a change in a side signal; inactive = flat fitted curve, though single readings scatter; the % refers to the signal ratio. Potencies beside an inconclusive call are fits to weak or partial responses and may not hold up.

Test: qHTS Assay for Lipid Storage Modulators in Drosophila S3 Cells
Details: BODIPY lipid droplet fluorescence, 18-24 h, cells fed with added oleic acid; lipid storage change, negative = inhibition: at 46.1 µM (top of the series) unless noted
In short: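 Drosophila S3 cells loaded with oleic acid (400 uM, as added) and compounds at several concentrations; lipid droplets imaged by 488-nm laser-scanning cytometry, 500–530 nm intensity and object ratio to cell channel. Percent activity normalized to 20 uM Triacsin C.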
% is set by controls: 0 for no effect and ±100 for the full control effect; potency is the fitted concentration of half-maximal effect.

Structure (SMILES)	Potency	lipid storage change, negative = inhibition
Cc1ccc(CC2CC(=O)N(c3ccncc3)C2=O)cc1 (centres undefined)	inconclusive: 8.2 µM [falling, partial curve]	
COc1ccc(Br)cc1/C=N/n1c(C)nc2ccccc2c1=O	active: 3.66 µM	
CC(=O)Nc1ccc(S(=O)(=O)NCC2CCC(C(=O)NCCC3=CCCCC3)CC2)cc1 (centres undefined)		inconclusive: -13.5%
CNC(=O)c1cc2cc(OC)ccc2oc1=O		inconclusive: 31.6%
O=C(CSc1nccn1-c1ncc(C(F)(F)F)cc1Cl)c1ccc(Br)cc1		inconclusive: 29.3%
COc1c(O)cc2c(c1O)[C@@H]1O[C@H](CO)[C@@H](O)[C@H](O)[C@H]1OC2=O		inconclusive: -24%
N#Cc1cc(C(=O)c2ccccc2O)cn(-c2nccs2)c1=O	inconclusive: 14.6 µM [activator, partial curve]	
CCOc1ccc(NC(=O)CC2SC(N)=NC2=O)c([N+](=O)[O-])c1 (centres undefined)		inconclusive: -50.3%
O/C(=C\c1nc2ccccc2nc1/C=C(\O)c1ccccc1)c1ccccc1		inconclusive: -1.1%
COc1ccc(NC(=O)CSCC(=O)N(C)CCOc2ccc(Cl)cc2)cc1		inconclusive: 23.7%
COc1ccc(CNC(=O)C2CCC(CNS(=O)(=O)c3ccc(C)cc3)CC2)cc1 (centres undefined)	inconclusive: 6.51 µM [activator, single point]	
Cc1c(Cl)cccc1NC(=O)C1Cc2ccccc2CN1C(=O)c1ccccc1 (centres undefined)		inconclusive: 12.7%
CC1(C)Cc2nc(NCCCO)c(C#N)cc2CO1	inconclusive: 0.259 µM [falling, full curve, poor fit]	
CC(=O)N1c2ccc(S(=O)(=O)N(C)CC(=O)NC(C)c3ccccc3)cc2CC1C (centres undefined)	inconclusive: 0.0046 µM [falling, full curve, poor fit]	
COC(=O)C1=C(N)c2c(F)cccc2C1(C#N)c1ccc(F)cc1 (centres undefined)		inconclusive: -0.562%
CCCn1cnc2cc(NCc3cccs3)ccc21		inconclusive: 12.5%
Cc1cc(-c2ccc(C)c(S(=O)(=O)NCCc3ccco3)c2)on1	inconclusive: 20.6 µM [activator, partial curve]	
Cc1ccnc2nc(C(=O)OCC(=O)N3CCc4ccccc43)nn12	inconclusive: 29.1 µM [falling, single point]	
CC(=O)Nc1ccc(S(=O)(=O)NCCS(=O)(=O)N2CCN(c3ccccc3)CC2)cc1		inconclusive: 6.21%
Cc1ccc(C2=NNC(C(O)C(O)C(O)C(O)CO)S2)cc1 (centres undefined)	active: 23.1 µM	
COC(=O)C1(C(C[N+](=O)[O-])c2ccc(C)cc2)C(=O)NCC1c1ccco1 (centres undefined)		inconclusive: 5.9%
CC(Sc1nnc(-c2ccco2)n1N)C(=O)NCC1CCCO1 (centres undefined)		inconclusive: -6.74%
Cn1c(-c2ccc(F)c(F)c2)cc2onc(-c3ccccc3)c2c1=O		inconclusive: 28.5%
Cc1ccccc1NC(=O)Nc1c(C)n(C)n(-c2ccccc2)c1=O		inconclusive: 27%
Cn1cccc1/C=N/NC(=O)c1cc2ccccc2cc1O		inconclusive: 94.5%
CCCN1CCN(CCCNC(=O)Cn2nc(-c3ccccc3)ccc2=O)CC1		inconclusive: -0.0758%
N#Cc1cn(CC(=O)O)c2ccccc12		inconclusive: -158%

Structure (SMILES)	Potency	lipid storage change, negative = inhibition
Cc1ccc(S(=O)(=O)NCCN=Cc2ccc(N(C)C)cc2)cc1		inconclusive: 330%
Oc1ccc(-c2nc3c4c(ncn3n2)-c2ccccc2CC42CCCC2)cc1		inconclusive: 19.1%
CSc1nnc(C)c(/C=C/Nc2ccc(F)cc2F)n1		inconclusive: 0.988%
CC(C)c1ccc(CN(C)C(=O)c2ccc(S(=O)(=O)NCc3ccco3)cc2)cc1		inconclusive: -14.4%
Cc1cc(NC(=O)c2cc(-c3ccccc3)on2)n(-c2ccccc2)n1	inconclusive: 16.4 µM [activator, partial curve, poor fit]	
Cn1c(C(=O)N2CCN(Cc3ccccc3)CC2)cc2c(=O)n(C)c3ccccc3c21	inconclusive: 9.2 µM [activator, partial curve]	
CCC1CCCCN1C(=O)c1ccc(OC2CCN(C(=O)CCOC)CC2)cc1 (centres undefined)		inconclusive: 18.8%
CCc1nnc(NS(=O)(=O)c2ccc(NC(=O)/C=C/C(=O)O)cc2)s1	inconclusive: 18.4 µM [activator, single point]	
O=[N+]([O-])/C(C(Cl)=C(Cl)Cl)=C(\Nc1ccc(F)cc1)n1cncn1		inconclusive: -3.09%
COc1ccc(S(=O)(=O)N2CCOCC2)cc1NC(=O)Cc1sc(C)nc1-c1ccc(F)cc1		inconclusive
COCCn1c(SCC(=O)Nc2ccc(NC(C)=O)cc2)nc2c([nH]c3ccccc32)c1=O	inconclusive: 32.6 µM [falling, single point]	
O=C(CNC(=O)c1ccc(Br)o1)NCCc1ccc(F)cc1		inconclusive: 28.9%
CN(C)C=NC(=O)/C(C#N)=C1\CCc2ccccc2N1		inconclusive: 26.3%
O=C(NC(=S)N1CCN(C/C=C/c2ccccc2)CC1)c1c(F)cccc1F	inconclusive: 29.1 µM [rising, single point]	
Clc1cccc(CN2CCSCC2)c1Cl		inconclusive: -26%
Cc1ccsc1-c1nc(CSCC(=O)NCc2ccc3c(c2)OCO3)c(C)o1		inconclusive: -5.68%
N#CCC(=O)N/N=C\c1cc(Br)ccc1OC/C=C/c1ccccc1	inconclusive: 29.1 µM [activator, single point]	
CC1=C(C(N)=O)C(c2cccc(O)c2)n2nc(CCCO)nc2N1 (centres undefined)		inconclusive: 33% [at 9.22 µM]
COc1ccc(C(=O)NN2CCOCC2)cc1	inconclusive: 14.6 µM [activator, single point]	
C=CCN(C(=O)OC(C)(C)C)S(=O)(=O)NCc1ccccc1		inconclusive: 11.2%
Cc1ccc(NC2CCCN(C(=O)c3ccc4[nH]ccc4c3)C2)cc1C (centres undefined)		inconclusive: -16%
O=C(Nc1nccs1)c1ccc(Cl)s1		inconclusive: 1.61%
CCCCCCSc1nnc2[nH]c(=O)cc(N)n12		inconclusive: 6.76%
CCCCOC(=O)c1ccc(S(N)(=O)=O)o1	inconclusive: 32.6 µM [falling, partial curve, poor fit]	
COc1ccc(-n2ncc(Cl)c(Cl)c2=O)cc1	inconclusive: 4.11 µM [activator, full curve]	
COc1ccc(S(=O)(=O)Nc2ccc(-n3cnnn3)cc2)cc1[N+](=O)[O-]		inconclusive: 18.1%
Cc1ccc(SCC(=O)NCCSC(C)(C)C)cc1	inconclusive: 0.92 µM [falling, full curve]	

Structure (SMILES)	Potency	lipid storage change, negative = inhibition
Cc1ccc(CNC(=O)CS(=O)(=O)CC(=O)O)cc1	inconclusive: 3.66 µM [cytotoxic, full curve]	
Fc1ccc2[nH]c3c(N4CCN(C5CCCCC5)CC4)ncnc3c2c1		inconclusive: -21.4%
CC(C)CNS(=O)(=O)c1ccc(CCC(=O)N2CCN(c3ccc(F)cc3)CC2)cc1	inconclusive: 0.0046 µM [falling, full curve, poor fit]	
Cc1cccc(NC(=O)CSc2ccc(-c3ccccn3)nn2)c1C		inconclusive: 7.68%
CCOc1ccc(CNCCN2CCCC2)cc1		inconclusive: -7.47%
CS(=O)(=O)c1cccc(C(=O)Nc2ccc(-c3nc4ccccc4[nH]3)cc2)c1		inactive
CCCCn1c(SCC(=O)Nc2cc(C)on2)nnc1-c1cccs1	inconclusive: 0.0052 µM [activator, full curve, poor fit]	
COc1ccc(-c2csc(NC(=O)CN3C(=O)CCC3=O)n2)c(OC)c1	inconclusive: 18.4 µM [falling, single point]	
COc1ccc([N+](=O)[O-])cc1NC(=O)COC(C)=O		inconclusive: -1.22%
Cn1nc(C(=O)OCC(=O)Nc2ccc3ccccc3c2)c2ccccc2c1=O		inconclusive: -3.23%
Cc1cc(NC(=O)C(C)SCC(=O)Nc2ccc(Br)cc2Br)no1 (centres undefined)		inconclusive: 30.9%
Cc1ccccc1NC(=O)c1cc(S(=O)(=O)N2CCOCC2)cn1C		inconclusive: 18.6%
N#C/C(=C\c1ccc(OCc2ccc(C(=O)O)cc2)cc1)C(=O)NCc1ccccc1	inconclusive: 20.6 µM [falling, single point]	
COCCCNC(=O)c1ccc(CS(=O)(=O)Cc2cccc(C)c2)o1		inconclusive: 27.2%
CCOc1ccc(-n2cnc3c(=O)[nH]c(N)nc32)cc1		inconclusive: 0.195%
Cc1ccc2oc(C(=O)N(Cc3nccn3C)C(C)C)c(C)c2c1		inconclusive: -24.3%
CCCC[C@]12Cc3cc(OC)c(OC)cc3C(O1)C1=C(CC3(CCCCC3)OC1=O)O2		inconclusive: -18.7% [at 9.22 µM]
O=C(CCCc1nc2ccccc2s1)NC1CCOC1=O (centres undefined)		inconclusive: 5.35%
Cc1onc(-c2ccccc2Cl)c1C(=O)NCc1cccnc1		inconclusive: 32.1%
Cc1ccc(C)c(OCC(=O)Nc2cc(C(=O)O)cc(C(=O)O)c2)c1		inconclusive: -18.5%
Cc1ccc(NC(=O)NC2CCCCCCC2)c(C)c1		inconclusive: 19.9%
CCC(Oc1ccccc1)C(=O)NCc1ccc(S(N)(=O)=O)cc1 (centres undefined)		inconclusive: 0.263%
O=C(c1ccccc1)N1CCCOC1c1ccccc1 (centres undefined)		inconclusive: -55.6%
CCc1nc2ccc(Cc3ccc4nc(CC)[nH]c4c3)cc2[nH]1		inconclusive: 29.6%
Cc1cc(C)n2c(SCC(=O)N(CC(C)C)c3c(N)n(CC(C)C)c(=O)[nH]c3=O)nnc2n1		inconclusive: 33.8%

Arranged by heavy-atom count (rising): six of the compounds above
Structure (SMILES)	Potency	lipid storage change, negative = inhibition
Cc1ccc(NC(=O)NC2CCCCCCC2)c(C)c1		inconclusive: 19.9%
CCc1nc2ccc(Cc3ccc4nc(CC)[nH]c4c3)cc2[nH]1		inconclusive: 29.6%
Cc1ccccc1NC(=O)c1cc(S(=O)(=O)N2CCOCC2)cn1C		inconclusive: 18.6%
COc1ccc(-c2csc(NC(=O)CN3C(=O)CCC3=O)n2)c(OC)c1	inconclusive: 18.4 µM [falling, single point]	
CS(=O)(=O)c1cccc(C(=O)Nc2ccc(-c3nc4ccccc4[nH]3)cc2)c1		inactive
Cc1cc(C)n2c(SCC(=O)N(CC(C)C)c3c(N)n(CC(C)C)c(=O)[nH]c3=O)nnc2n1		inconclusive: 33.8%
